From patent publication US11834424B2, “Compounds useful as chaperone-mediated autophagy modulators” (ALBERT EINSTEIN COLLEGE OF MEDICINE, priority 2018, dated 2023)

Assay: in vitro
Settings: human, microsomes, CLint(liver)
Protocol: Microsome stability was determined in human, rat, and mouse, liver microsomes. Compound at 3 μM final concentration along with 0.5 mg/mL microsome protein and 1 mM NADPH was incubated for 0, 5, 15, 30 and 60 min. As a negative control, test compound was incubated with microsomes in the absence of NADPH. Samples were quenched with methanol and centrifuged for 25 min at 2500 rpm to precipitate proteins. Supernatants were analyzed (N=3) by LC-MS/MS. The In peak area ratio (compound peak area/internal standard peak area) was plotted against time and the gradient of the line determined the elimination rate constant [k=(−1)(slope)].
R^2 is the correlation coefficient of the linear regression for the determination of kinetic constant. T1/2 is the half life and CLint (mic) is the intrinsic clearance. CLint(liver)=CLint (mic)*mg microsomal protein/g liver weight*g liver weight/kg body weight. Liver weight/kg body weight is 20 g/kg for human.

CLint scaled at 3 μM: 143 mL/min/kg
SMILES: CCCNCC(O)COc1ccccc1C(=O)CCc1ccccc1 (stereo not shown) [Propafenone]
